Measurements reported in the supplement of paper PMC10849652.
This is one part of the list.

Amino acid sequences for entries named in this document (tags omitted). A change or cut given only in a name is not applied to a line headed by its entry.
UniProt Q96SK2: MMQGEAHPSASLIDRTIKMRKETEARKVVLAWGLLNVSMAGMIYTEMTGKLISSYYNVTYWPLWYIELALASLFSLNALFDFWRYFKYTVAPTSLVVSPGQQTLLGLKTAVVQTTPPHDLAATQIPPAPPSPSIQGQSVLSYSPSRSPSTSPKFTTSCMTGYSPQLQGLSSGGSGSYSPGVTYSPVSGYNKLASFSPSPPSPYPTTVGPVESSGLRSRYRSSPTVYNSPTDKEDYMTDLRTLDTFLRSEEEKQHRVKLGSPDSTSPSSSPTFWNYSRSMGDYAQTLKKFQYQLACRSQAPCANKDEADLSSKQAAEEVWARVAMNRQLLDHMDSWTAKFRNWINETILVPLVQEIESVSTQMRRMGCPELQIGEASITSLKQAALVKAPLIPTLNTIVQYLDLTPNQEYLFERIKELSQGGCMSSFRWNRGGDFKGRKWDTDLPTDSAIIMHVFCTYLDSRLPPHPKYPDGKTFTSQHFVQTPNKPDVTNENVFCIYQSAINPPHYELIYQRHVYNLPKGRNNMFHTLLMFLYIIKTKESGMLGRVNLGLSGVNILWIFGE
UniProt A0PJW6: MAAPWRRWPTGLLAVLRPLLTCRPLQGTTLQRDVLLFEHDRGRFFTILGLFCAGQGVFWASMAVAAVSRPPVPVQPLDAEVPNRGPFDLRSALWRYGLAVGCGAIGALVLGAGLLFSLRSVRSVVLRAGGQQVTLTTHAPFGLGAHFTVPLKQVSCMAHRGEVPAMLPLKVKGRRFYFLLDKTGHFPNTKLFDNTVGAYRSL
UniProt Q6ZXV5: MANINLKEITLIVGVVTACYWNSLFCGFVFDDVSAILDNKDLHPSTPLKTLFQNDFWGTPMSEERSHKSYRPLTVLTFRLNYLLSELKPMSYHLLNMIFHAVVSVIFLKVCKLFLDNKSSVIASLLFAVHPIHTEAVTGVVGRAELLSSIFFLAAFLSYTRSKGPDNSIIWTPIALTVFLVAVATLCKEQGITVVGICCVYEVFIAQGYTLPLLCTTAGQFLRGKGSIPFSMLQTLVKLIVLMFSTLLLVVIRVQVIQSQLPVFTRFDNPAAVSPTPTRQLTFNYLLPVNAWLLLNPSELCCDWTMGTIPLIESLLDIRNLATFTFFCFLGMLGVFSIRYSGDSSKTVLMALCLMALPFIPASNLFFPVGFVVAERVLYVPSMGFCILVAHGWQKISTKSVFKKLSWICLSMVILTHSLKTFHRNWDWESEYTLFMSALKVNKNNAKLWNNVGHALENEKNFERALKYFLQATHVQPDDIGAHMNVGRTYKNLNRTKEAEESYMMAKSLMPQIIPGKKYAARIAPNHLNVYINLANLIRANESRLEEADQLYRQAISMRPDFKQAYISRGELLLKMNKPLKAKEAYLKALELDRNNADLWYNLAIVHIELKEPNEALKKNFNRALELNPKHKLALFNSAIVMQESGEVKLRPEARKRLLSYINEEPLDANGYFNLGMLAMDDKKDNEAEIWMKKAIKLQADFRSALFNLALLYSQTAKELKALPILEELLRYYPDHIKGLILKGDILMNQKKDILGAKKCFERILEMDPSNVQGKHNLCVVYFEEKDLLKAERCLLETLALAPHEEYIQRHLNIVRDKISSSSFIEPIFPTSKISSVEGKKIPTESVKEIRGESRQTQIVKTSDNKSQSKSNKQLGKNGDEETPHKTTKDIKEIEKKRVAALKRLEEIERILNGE
UniProt Q86UE8, whole entry, looked up: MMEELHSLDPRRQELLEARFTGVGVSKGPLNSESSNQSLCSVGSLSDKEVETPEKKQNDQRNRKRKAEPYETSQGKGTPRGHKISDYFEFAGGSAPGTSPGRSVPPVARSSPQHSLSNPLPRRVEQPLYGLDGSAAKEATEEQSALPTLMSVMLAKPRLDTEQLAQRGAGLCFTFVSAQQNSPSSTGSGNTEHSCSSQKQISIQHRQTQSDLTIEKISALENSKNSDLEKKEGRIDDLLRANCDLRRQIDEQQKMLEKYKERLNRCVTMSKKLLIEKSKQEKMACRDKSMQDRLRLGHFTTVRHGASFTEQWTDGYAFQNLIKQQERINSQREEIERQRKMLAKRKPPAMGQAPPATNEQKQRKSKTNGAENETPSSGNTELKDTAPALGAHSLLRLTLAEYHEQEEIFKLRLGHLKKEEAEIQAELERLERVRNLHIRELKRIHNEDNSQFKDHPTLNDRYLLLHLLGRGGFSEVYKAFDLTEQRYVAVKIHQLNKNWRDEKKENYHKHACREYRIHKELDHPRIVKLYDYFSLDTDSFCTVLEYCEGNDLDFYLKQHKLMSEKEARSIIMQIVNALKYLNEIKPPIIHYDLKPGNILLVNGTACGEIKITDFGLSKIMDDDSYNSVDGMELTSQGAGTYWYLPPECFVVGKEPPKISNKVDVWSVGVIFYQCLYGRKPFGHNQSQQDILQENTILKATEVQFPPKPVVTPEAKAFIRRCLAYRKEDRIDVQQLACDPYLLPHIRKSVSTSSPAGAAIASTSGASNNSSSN
UniProt O94886: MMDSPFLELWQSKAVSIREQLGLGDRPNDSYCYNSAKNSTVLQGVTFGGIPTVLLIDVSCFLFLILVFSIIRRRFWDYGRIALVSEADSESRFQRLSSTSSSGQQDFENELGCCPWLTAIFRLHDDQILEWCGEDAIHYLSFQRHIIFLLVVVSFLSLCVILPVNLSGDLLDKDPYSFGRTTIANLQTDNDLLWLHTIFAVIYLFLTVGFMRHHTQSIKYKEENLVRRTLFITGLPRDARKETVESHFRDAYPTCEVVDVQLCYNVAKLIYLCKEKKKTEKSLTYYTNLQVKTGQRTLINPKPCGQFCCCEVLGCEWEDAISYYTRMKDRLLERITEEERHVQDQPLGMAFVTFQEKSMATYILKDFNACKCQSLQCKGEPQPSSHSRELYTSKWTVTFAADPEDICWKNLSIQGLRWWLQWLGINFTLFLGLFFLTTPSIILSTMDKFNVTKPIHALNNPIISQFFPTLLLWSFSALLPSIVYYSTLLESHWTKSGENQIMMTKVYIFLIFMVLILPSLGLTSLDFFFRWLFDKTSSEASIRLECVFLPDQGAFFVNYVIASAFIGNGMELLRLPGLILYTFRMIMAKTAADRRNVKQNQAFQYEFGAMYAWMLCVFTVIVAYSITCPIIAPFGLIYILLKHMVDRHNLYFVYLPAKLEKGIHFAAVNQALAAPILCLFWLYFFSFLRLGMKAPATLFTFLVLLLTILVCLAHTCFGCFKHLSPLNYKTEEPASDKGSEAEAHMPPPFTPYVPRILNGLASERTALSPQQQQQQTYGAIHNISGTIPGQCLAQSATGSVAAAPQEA
UniProt Q7Z403: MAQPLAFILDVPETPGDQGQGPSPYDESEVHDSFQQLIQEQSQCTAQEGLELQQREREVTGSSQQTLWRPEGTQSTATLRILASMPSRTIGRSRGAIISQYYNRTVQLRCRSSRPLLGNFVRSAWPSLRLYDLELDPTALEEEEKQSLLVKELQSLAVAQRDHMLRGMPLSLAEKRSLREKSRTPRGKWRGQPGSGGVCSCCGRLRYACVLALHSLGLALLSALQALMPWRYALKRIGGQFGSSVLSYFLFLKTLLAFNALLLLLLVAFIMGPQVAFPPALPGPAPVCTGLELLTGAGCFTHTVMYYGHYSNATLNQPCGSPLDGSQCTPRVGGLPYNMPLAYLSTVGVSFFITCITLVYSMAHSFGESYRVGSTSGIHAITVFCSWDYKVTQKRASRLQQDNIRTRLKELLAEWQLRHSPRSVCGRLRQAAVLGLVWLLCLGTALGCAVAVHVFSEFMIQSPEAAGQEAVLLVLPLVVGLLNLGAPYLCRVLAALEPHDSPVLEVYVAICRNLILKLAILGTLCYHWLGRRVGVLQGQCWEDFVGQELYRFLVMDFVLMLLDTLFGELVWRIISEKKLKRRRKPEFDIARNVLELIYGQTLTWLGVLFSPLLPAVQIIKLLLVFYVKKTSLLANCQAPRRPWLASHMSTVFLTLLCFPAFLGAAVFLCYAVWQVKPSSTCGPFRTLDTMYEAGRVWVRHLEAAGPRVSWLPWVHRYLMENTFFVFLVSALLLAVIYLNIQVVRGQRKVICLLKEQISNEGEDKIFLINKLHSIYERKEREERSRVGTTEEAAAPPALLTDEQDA
UniProt Q9BZW5, whole entry, looked up: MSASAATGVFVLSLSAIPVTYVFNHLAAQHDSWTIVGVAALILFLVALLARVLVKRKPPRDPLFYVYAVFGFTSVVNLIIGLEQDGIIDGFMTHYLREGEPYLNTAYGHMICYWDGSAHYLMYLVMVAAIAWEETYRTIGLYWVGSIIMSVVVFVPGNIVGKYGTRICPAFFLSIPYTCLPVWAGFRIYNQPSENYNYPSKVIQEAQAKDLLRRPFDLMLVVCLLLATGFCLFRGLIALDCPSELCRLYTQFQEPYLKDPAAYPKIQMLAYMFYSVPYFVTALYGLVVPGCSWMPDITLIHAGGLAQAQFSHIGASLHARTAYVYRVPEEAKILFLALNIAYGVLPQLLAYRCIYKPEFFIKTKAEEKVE
UniProt P55061, whole entry, looked up: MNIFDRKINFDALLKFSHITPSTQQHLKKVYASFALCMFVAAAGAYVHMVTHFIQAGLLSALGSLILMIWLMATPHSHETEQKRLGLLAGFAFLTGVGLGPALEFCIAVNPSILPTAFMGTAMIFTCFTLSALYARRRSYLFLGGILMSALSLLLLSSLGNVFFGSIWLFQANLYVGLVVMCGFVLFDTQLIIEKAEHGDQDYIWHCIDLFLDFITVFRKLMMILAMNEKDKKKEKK
UniProt Q9H7F4: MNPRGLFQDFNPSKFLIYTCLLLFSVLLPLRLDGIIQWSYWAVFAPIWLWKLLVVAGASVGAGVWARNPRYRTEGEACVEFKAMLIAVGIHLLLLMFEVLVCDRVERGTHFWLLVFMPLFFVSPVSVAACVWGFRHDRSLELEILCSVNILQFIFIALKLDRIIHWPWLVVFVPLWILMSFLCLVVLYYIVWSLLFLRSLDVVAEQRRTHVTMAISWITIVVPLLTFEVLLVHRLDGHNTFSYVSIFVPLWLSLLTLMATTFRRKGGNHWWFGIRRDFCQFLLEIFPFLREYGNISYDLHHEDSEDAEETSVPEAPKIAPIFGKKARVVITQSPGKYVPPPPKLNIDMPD
UniProt Q86XT9, whole entry, looked up: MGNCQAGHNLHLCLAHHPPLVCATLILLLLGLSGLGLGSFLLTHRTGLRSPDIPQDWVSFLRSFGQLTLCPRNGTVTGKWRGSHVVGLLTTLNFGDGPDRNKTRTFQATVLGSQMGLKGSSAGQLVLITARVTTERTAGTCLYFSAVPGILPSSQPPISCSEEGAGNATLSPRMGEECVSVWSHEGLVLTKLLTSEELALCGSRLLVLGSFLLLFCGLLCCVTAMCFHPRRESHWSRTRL
UniProt Q6PL24: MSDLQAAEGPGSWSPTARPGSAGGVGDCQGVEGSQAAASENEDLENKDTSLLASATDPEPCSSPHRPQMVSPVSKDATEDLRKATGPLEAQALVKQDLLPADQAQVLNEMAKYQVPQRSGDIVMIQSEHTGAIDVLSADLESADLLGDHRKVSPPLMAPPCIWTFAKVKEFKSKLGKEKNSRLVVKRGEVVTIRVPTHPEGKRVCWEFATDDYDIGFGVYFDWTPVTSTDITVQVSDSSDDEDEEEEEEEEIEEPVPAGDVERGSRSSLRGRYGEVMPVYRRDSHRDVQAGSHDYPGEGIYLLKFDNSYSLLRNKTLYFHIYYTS
UniProt O14763, whole entry, looked up: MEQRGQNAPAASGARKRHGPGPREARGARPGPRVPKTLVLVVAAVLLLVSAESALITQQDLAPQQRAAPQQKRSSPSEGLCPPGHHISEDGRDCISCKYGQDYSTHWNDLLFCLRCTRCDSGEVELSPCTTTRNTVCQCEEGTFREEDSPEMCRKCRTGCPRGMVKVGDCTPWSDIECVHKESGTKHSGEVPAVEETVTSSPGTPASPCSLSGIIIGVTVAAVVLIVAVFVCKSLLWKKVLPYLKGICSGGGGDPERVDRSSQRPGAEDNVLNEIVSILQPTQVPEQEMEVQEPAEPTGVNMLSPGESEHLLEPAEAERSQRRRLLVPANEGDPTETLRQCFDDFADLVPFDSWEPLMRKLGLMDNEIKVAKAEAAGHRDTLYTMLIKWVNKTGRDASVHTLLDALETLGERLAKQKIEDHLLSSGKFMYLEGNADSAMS
UniProt Q9NUM4, whole entry, looked up: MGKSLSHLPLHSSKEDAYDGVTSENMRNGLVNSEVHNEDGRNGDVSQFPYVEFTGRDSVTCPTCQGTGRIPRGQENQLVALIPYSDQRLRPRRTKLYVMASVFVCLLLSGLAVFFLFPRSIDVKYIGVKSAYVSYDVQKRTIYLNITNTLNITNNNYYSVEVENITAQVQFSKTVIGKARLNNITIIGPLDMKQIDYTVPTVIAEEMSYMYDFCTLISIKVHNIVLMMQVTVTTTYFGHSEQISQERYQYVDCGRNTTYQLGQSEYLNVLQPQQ
UniProt Q9NWH2: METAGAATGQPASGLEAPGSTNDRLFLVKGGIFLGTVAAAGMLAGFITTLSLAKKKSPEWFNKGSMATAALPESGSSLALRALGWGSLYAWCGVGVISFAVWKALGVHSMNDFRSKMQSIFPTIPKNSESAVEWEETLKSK
UniProt Q96B96: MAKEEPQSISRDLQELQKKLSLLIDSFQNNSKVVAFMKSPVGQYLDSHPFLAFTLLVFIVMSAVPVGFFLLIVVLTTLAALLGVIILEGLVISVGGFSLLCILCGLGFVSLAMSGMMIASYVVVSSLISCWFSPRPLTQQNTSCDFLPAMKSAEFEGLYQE

Tests used:
Test in all cases: log2 fold change, soluble protein after heating vs DMSO (PISA); higher = thermal stabilisation; K562 cells, 10 uM, 30 min; active = over 0.2 and 3.5 SD of the protein, either way, in both replicates (recomputed)
erlotinib = compound: C#Cc1cccc(Nc2ncnc3cc(OCCOC)c(OCCOC)cc23)c1 [erlotinib]
How it was run: (§1)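 Quantification of soluble protein used TMTpro 16plex LC-MS/MS, with channel sums equalised. Samples were the supernatant after 21,000xg for 90 min of pooled aliquots from K562 cells (2×10^6 cells/mL) treated with 10 μM compound for 30 min, heated for 3 min over 48°C-58°C, and extracted in PBS with 0.5% NP-40 at 4°C. Values, from duplicates, describe thermal stability against control samples on a log2 fold-change scale.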

[1] = compound: C/C(=N\NC(=O)C1=CC(=CC=C1)S(=O)(=O)N2CCOCC2)/C3=C(C=CC(=C3)Cl)O
How it was run: as §1

[2] = compound: C1=CC(=C(C=C1Cl)C2=NC3=NC=CN=C3C(=N2)NC4=CC=NC=C4)F
How it was run: as §1

[3] = compound: C1=CC(=CC=C1C2=NC3=C(N2)C=C(C=C3)C(=O)N)OC4=CC=C(C=C4)Cl
How it was run: as §1

[4] = compound: C1=CC2=C(C=CC(=C2)/C=C\3/C(=O)NC(=NCC4=CC=CS4)S3)N=C1
How it was run: as §1

[5] = compound: C1=CC2=NC=CN=C2C=C1/C=C/3\C(=O)NC(=O)S3
How it was run: as §1

[6] = compound: C1=CC=C(C=C1)C2=NC(=C(N2)C3=CC=NC=C3)C4=CC(=C(C=C4)Cl)O
How it was run: as §1

[7] = compound: C1=CC=C2C(=C1)C3=NNC4=CC=CC(=C43)C2=O
How it was run: as §1

[8] = compound: C1CCN(C1)C(=O)NC2=CC=CC(=C2)NC3=NC=C(C(=N3)NCCC4=CN=CN4)Br
How it was run: as §1

[9] = compound: C1CN(CCC1(CC2=CC=C(C=C2)Cl)N)C3=NC=NC4=C3C=CN4
How it was run: as §1

Measured: log2 fold change

TMEM11 (UniProt P17152)
inactive: erlotinib 0.081 | [1] -0.028 | [2] 0.019 | [3] 0.037 | [4] -0.02 | [5] -0.01 | [6] 0.027 | [7] -0.016 | [8] -0.008 | [9] 0.014

TMEM59 (UniProt Q9BXS4)
inactive: erlotinib -0.196 | [1] 0.013 | [3] 0.076 | [4] -0.013 | [6] 0.196 | [7] -0.01 | [8] -0.008 | [9] -0.096

TMEM209 (UniProt Q96SK2)
inactive: erlotinib 0.016 | [1] 0.091 | [2] -0.031 | [3] 0.045 | [4] -0.013 | [5] -0.005 | [6] 0.017 | [7] -0.214 | [8] -0.07 | [9] 0.051

TMEM179B (UniProt Q7Z7N9)
inactive: erlotinib 0.042 | [1] -0.016 | [2] 0.073 | [3] 0.032 | [4] -0.009 | [5] 0.034 | [6] -0.107 | [7] -0.032 | [8] -0.165 | [9] -0.005

TLN1 (UniProt Q9Y490)
inactive: erlotinib -0.011 | [1] 0.063 | [2] 0.073 | [3] -0.018 | [4] -0.009 | [5] 0.018 | [6] 0.021 | [7] 0.028 | [8] -0.009 | [9] -0.021

TMEM223 (UniProt A0PJW6)
inactive: erlotinib 0.005 | [1] 0.052 | [2] -0.018 | [3] 0.002 | [4] -0.009 | [5] 0.013 | [6] -0.007 | [7] 0.01 | [8] 0.007 | [9] -0.038

2 consecutive records out of the list so far:
TMEM179B (UniProt Q7Z7N9)
inactive: erlotinib 0.042 | [1] -0.016 | [2] 0.073 | [3] 0.032 | [4] -0.009 | [5] 0.034 | [6] -0.107 | [7] -0.032 | [8] -0.165 | [9] -0.005

TLN1 (UniProt Q9Y490)
inactive: erlotinib -0.011 | [1] 0.063 | [2] 0.073 | [3] -0.018 | [4] -0.009 | [5] 0.018 | [6] 0.021 | [7] 0.028 | [8] -0.009 | [9] -0.021

(next part)

TMTC3 (UniProt Q6ZXV5)
inactive: erlotinib 0 | [1] 0 | [2] 0.007 | [3] 0.023 | [4] 0.042 | [5] 0.002 | [6] 0.001 | [7] -0.001 | [8] -0.064 | [9] -0.014

TMUB1 (UniProt Q9BVT8)
inactive: erlotinib -0.079 | [1] -0.002 | [2] -0.162 | [3] 0.057 | [4] -0.07 | [5] 0.096 | [6] -0.059 | [7] 0.059 | [8] -0.025 | [9] 0.055

TM9SF4 (UniProt Q92544)
inactive: erlotinib -0.015 | [1] 0.011 | [2] -0.006 | [3] 0.052 | [4] -0.054 | [5] -0.002 | [6] 0.008 | [7] 0.038 | [8] -0.012 | [9] 0.066

TLK2 isoform 2 (UniProt Q86UE8)
inactive: erlotinib 0 | [1] 0.008 | [2] 0.04 | [3] 0.074 | [4] -0.041 | [5] -0.016 | [6] 0.064 | [7] 0 | [8] 0.017 | [9] -0.048

TMEM101 (UniProt Q96IK0)
inactive: erlotinib -0.046 | [1] 0.047 | [3] 0.027 | [4] 0.045 | [5] 0.018 | [6] -0.045 | [7] -0.012 | [8] 0.014 | [9] 0.085

TMEM63A (UniProt O94886)
inactive: erlotinib -0.028 | [1] 0.026 | [2] 0.007 | [3] 0.019 | [4] -0.033 | [5] -0.011 | [7] 0.045 | [8] 0.01 | [9] 0.059

TMEM268 isoform 3 (UniProt Q5VZI3)
inactive: erlotinib -0.161 | [1] 0.061 | [2] -0.166 | [3] 0.054 | [4] 0.024 | [5] -0.138 | [6] 0.118 | [7] -0.21 | [8] 0.13 | [9] 0.045

TMC6 (UniProt Q7Z403)
inactive: erlotinib 0.033 | [1] -0.016 | [3] 0.025 | [4] 0.071 | [6] 0.037 | [7] -0.088 | [8] -0.009 | [9] -0.054

TMEM104 (UniProt Q8NE00)
inactive: erlotinib 0.08 | [1] -0.026 | [2] 0.037 | [3] 0.026 | [4] 0.039 | [6] 0.013 | [7] -0.015

TM6SF1 (UniProt Q9BZW5)
inactive: erlotinib -0.02 | [1] 0.04 | [2] 0.087 | [3] -0.01 | [4] -0.121 | [6] -0.013 | [7] -0.149 | [8] 0.133 | [9] 0.048

TMBIM6 isoform 2 (UniProt P55061)
inactive: erlotinib -0.019 | [1] 0.029 | [2] 0.051 | [3] -0.062 | [4] 0.067 | [5] 0.076 | [6] 0.019 | [7] -0.07 | [8] 0.026 | [9] -0.01

TMEM181 (UniProt Q9P2C4)
inactive: erlotinib -0.027 | [1] -0.03 | [3] 0.005 | [4] -0.321 | [5] 0.016 | [6] -0.053 | [7] -0.048 | [8] -0.016 | [9] 0.111

TMEM185B (UniProt Q9H7F4)
inactive: erlotinib 0.082 | [1] -0.034 | [2] -0.062 | [3] 0.043 | [4] 0.124 | [5] 0.061 | [6] 0.008 | [7] -0.022 | [8] -0.095 | [9] 0

TMEM219 (UniProt Q86XT9)
inactive: erlotinib -0.029 | [1] 0.035 | [2] 0.059 | [3] 0.073 | [4] 0.001 | [5] 0.015 | [7] 0.006 | [8] 0.042 | [9] 0.016

TMED8 (UniProt Q6PL24)
inactive: erlotinib -0.006 | [1] -0.047 | [3] 0.036 | [4] 0.032 | [5] 0.053 | [6] 0.181 | [7] 0.094 | [8] -0.039 | [9] 0.002

TNFRSF10B (UniProt O14763)
inactive: erlotinib 0.009 | [1] 0.011 | [2] 0.017 | [3] 0.026 | [4] 0.014 | [5] 0.071 | [7] 0.031 | [8] 0.007 | [9] 0.156

TMED3 (UniProt Q9Y3Q3)
inactive: erlotinib -0.08 | [1] -0.09 | [2] 0.089 | [3] 0.077 | [4] 0.115 | [5] -0.049 | [7] 0.005 | [8] -0.02 | [9] 0.007

TMEM106B (UniProt Q9NUM4)
inactive: erlotinib 0.007 | [1] 0.028 | [2] -0.047 | [3] 0.031 | [4] 0.051 | [5] -0.002 | [7] 0.003 | [8] -0.064 | [9] 0.15

TMEM69 (UniProt Q5SWH9)
inactive: erlotinib -0.11 | [1] 0.078 | [3] -0.009 | [4] 0.047 | [5] 0.02 | [6] 0.076 | [7] 0.169 | [8] 0.087 | [9] 0.081

TMEM242 (UniProt Q9NWH2)
inactive: erlotinib -0.074 | [1] 0.046 | [2] -0.111 | [3] 0.1 | [4] 0.048 | [5] 0.077 | [6] -0.039 | [7] -0.115 | [8] 0.064 | [9] -0.025

TMED10 (UniProt P49755)
inactive: erlotinib 0 | [1] 0.031 | [2] 0.152 | [3] -0.023 | [4] 0.033 | [5] 0.004 | [6] 0.024 | [7] 0.001 | [8] 0.008 | [9] 0.037

TMEM267 (UniProt Q0VDI3)
inactive: erlotinib -0.054 | [1] -0.151 | [3] 0.034 | [4] 0.198 | [5] 0.067 | [6] 0.093 | [7] -0.04 | [8] 0.365 | [9] -0.217

TMSB4X (UniProt P62328)
inactive: [1] -0.374 | [2] -0.588 | [4] -0.181 | [5] -0.388 | [6] 0.112 | [7] 0.572

TMEM205 (UniProt Q6UW68)
inactive: erlotinib -0.098 | [2] 0.026 | [3] -0.022 | [5] -0.034 | [6] 0.079 | [8] 0.002 | [9] 0.014

TMEM159 isoform 2 (UniProt Q96B96)
inactive: erlotinib 0.007 | [2] -0.115 | [3] 0.048 | [5] -0.094 | [8] -0.193 | [9] 0.016

TMCO6 isoform 2 (UniProt Q96DC7)
inactive: erlotinib 0.036 | [3] -0.065
